These are yes or no findings as the source states them, for the method shown. Binding seen in cells or lysates may run through a third protein. Some entries that bind do so weakly or less than the wild type. One block for each binder: values may come before it.
Columns and labels:
Assay in all cases: co-IP; lysates of HEK293T cells expressing the Flag-TRF1 alleles (1X cell lysis buffer with protease inhibitors) mixed overnight with Flag M2 agarose beads; washed four times with lysis buffer; eluted with Laemmli buffer; endogenous TIN2 and POT1 detected by blot
[1] = target: Flag-TRF1 (wild-type human TRF1, FLAG-tagged) (human) (UniProt P54274)
Flag-TRF1-T273A (human) = Flag-TRF1-T273A (human) (UniProt P54274)
Flag-TRF1-T358A (human) = Flag-TRF1-T358A (human) (UniProt P54274)

Protein sequences, listed by entry. Tags and fused reporters are not part of them. Lines headed by an entry give the natural chain unless they say otherwise; changes in a name come on top.
UniProt P54274: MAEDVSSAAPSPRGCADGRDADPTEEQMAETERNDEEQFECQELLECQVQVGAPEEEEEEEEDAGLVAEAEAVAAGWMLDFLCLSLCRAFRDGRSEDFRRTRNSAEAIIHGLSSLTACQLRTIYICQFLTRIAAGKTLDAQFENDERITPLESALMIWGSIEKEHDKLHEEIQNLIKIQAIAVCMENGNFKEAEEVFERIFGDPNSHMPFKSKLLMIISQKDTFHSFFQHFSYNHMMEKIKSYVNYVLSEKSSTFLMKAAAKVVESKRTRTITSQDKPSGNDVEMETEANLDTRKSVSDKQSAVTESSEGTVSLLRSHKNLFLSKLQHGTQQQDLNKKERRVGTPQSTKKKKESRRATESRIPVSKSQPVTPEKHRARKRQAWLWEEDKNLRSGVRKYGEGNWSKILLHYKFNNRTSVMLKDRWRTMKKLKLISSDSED

- binding [1]: binds
- binding (Flag-TRF1-T273A (human)): binds
- binding (Flag-TRF1-T358A (human)): binds
B1: TIN2 (endogenous) (protein, UniProt Q9BSI4 1-451)
chain: MATPLVAGPAALRFAAAASWQVVRGRCVEHFPRVLEFLRSLRAVAPGLVRYRHHERLCMGLKAKVVVELILQGRPWAQVLKALNHHFPESGPIVRDPKATKQDLRKILEAQETFYQQVKQLSEAPVDLASKLQELEQEYGEPFLAAMEKLLFEYLCQLEKALPTPQAQQLQDVLSWMQPGVSITSSLAWRQYGVDMGWLLPECSVTDSVNLAEPMEQNPPQQQRLALHNPLPKAKPGTHLPQGPSSRTHPEPLAGRHFNLAPLGRRRVQSQWASTRGGHKERPTVMLFPFRNLGSPTQVISKPESKEEHAIYTADLAMGTRAASTGKSKSPCQTLGGRALKENPVDLPATEQKENCLDCYMDPLRLSLLPPRARKPVCPPSLCSSVITIGDLVLDSDEEENGQGEGKESLENYQKTKFDTLIPTLCEYLPPSGHGAIPVSSCDCRDSSRPL

- binding [1]: binds
- binding (Flag-TRF1-T273A (human)): binds
- binding (Flag-TRF1-T358A (human)): binds
B2: POT1 (endogenous) (protein, UniProt Q9NUX5 1-634)
chain: MSLVPATNYIYTPLNQLKGGTIVNVYGVVKFFKPPYLSKGTDYCSVVTIVDQTNVKLTCLLFSGNYEALPIIYKNGDIVRFHRLKIQVYKKETQGITSSGFASLTFEGTLGAPIIPRTSSKYFNFTTEDHKMVEALRVWASTHMSPSWTLLKLCDVQPMQYFDLTCQLLGKAEVDGASFLLKVWDGTRTPFPSWRVLIQDLVLEGDLSHIHRLQNLTIDILVYDNHVHVARSLKVGSFLRIYSLHTKLQSMNSENQTMLSLEFHLHGGTSYGRGIRVLPESNSDVDQLKKDLESANLTANQHSDVICQSEPDDSFPSSGSVSLYEVERCQQLSATILTDHQYLERTPLCAILKQKAPQQYRIRAKLRSYKPRRLFQSVKLHCPKCHLLQEVPHEGDLDIIFQDGATKTPDVKLQNTSLYDSKIWTTKNQKGRKVAVHFVKNNGILPLSNECLLLIEGGTLSEICKLSNKFNSVIPVRSGHEDLELLDLSAPFLIQGTIHHYGCKQCSSLRSIQNLNSLVDKTSWIPSSVAEALGIVPLQYVFVMTFTLDDGTGVLEAYLMDSDKFFQIPASEVLMDDDLQKSVDMIMDMFCPPGIKIDAYPWLECFIKSYNVTNGTDNQICYQIFDTTVAEDVI
